The other results are listed elsewhere or left out. The main result of the screen is listed elsewhere. These columns were measured beside it and carry no call. The list favours compounds with an active or inconclusive main result. Words in brackets tell the shape of the fitted curve; partial curves, single points and poor fits give uncertain potencies.
Assay: IkB Signaling
Details: ABC-DLBCL IkBa-CBG/CBR dual luciferase ratio (green luciferase fused to IkBa over red control in OCI-Ly3 lymphoma cells), 4 h; measured here: control luc red channel unless noted
Summary of the method: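 In this assay, an IκBα–CBG68 fusion accumulates when IKK-driven degradation is blocked; native CBR normalizes for cell number. OCI-Ly3 cells were treated 4 h with compound and doxycycline, then green and red light read after Chroma-Glo addition.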

**Q.** For COc1ccc(OC)c2sc(N(Cc3cccnc3)C(C)=O)nc12, which AC50 is on record?
**A.** The AC50 was 0.00631 µM [rising, full curve, poor fit].

**Q.** Which AC50 does the source give for Nn1c(-c2cccs2)nc2sc3c(c2c1=O)CCCC3 here?
**A.** Its AC50 is 39.8 µM [falling, single point].

**Q.** Which AC50 does the source give for COc1ccc2cc3c(N)nn(C(=O)Cc4ccccc4OC)c3nc2c1 here?
**A.** Its AC50 is 20 µM [falling, partial curve].

**Q.** With COc1ccc(-c2cc(C(=O)N3CCCCC3)no2)cc1OC as the compound, how does the AC50 read?
**A.** The AC50 was 12.6 µM [falling, partial curve].

**Q.** Which AC50 does the source give for CC1CN(C(=O)Nc2ccc(C(=O)NCc3ccccc3F)cc2)c2ccccc2S1 (stereo not given) here?
**A.** Its AC50 is 12.6 µM [falling, partial curve].

**Q.** With COC(=O)c1ccc(NC(=O)CSc2n[nH]c(-c3ccccc3)n2)cc1 as the compound, how does the AC50 read?
**A.** Its AC50 is 3.98 µM [falling, partial curve, poor fit].

**Q.** Which AC50 does the source give for Fc1ccccc1N1CCN(Cc2nnc(-c3ccc4c(c3)OCO4)o2)CC1 here?
**A.** The AC50 was 31.6 µM [falling, single point].

**Q.** Which AC50 does the source give for Cc1ccc(C)c(N2C(=O)N(Cc3ccccc3C)c3ccccc3S2(=O)=O)c1 here?
**A.** Its AC50 is 7.94 µM [falling, full curve].

**Q.** With CCn1cc(C2=NC(c3ccccc3)CO2)c2ccccc21 (stereo not given) as the compound, how does the AC50 read?
**A.** The AC50 was 15.8 µM [falling, partial curve].

**Q.** For O=C(Nc1nc2c(Cl)cccc2s1)c1ccc(S(=O)(=O)N2CCc3ccccc32)cc1, which AC50 is on record?
**A.** Its AC50 is 0.316 µM [falling, full curve].

**Q.** Which AC50 does the source give for Cc1ccc(NC(=O)Cc2ccc(NC(=O)N3CCCCc4ccccc43)cc2)cc1Cl here?
**A.** The AC50 was 20 µM [falling, partial curve].

**Q.** With O=C(Nc1ccccc1C(F)(F)F)c1cc(-c2ccccc2O)on1 as the compound, how does the AC50 read?
**A.** Its AC50 is 0.000158 µM [falling, full curve].

**Q.** With Cc1cccc(C)c1-n1ncc(C(=O)NCCCN2CCCCC2)c1C1CCN(C(=O)OC(C)(C)C)CC1 as the compound, how does the AC50 read?
**A.** The AC50 was 15.8 µM [falling, partial curve].

**Q.** For COc1ccc(C2CC(C(F)(F)F)n3nc(C(=O)NCc4c(C)nn(C)c4C)c(Cl)c3N2)cc1 (stereo not given), which AC50 is on record?
**A.** The AC50 was 20 µM [falling, partial curve].

**Q.** Which AC50 does the source give for CCCCOc1ccc(C(=O)NCC(c2ccc(Cl)cc2)N2CCOCC2)cc1 (stereo not given) here?
**A.** The AC50 was 31.6 µM [falling, single point].

**Q.** With Cc1nc2cc(-c3ccc(Cl)cc3)nn2c(C)c1CCC(=O)N1CCN(c2ccccc2)CC1 as the compound, how does the AC50 read?
**A.** The AC50 was 0.251 µM [falling, full curve].

**Q.** With CSc1nc2ccc(NS(=O)(=O)c3ccc(Cl)s3)cc2s1 as the compound, how does the AC50 read?
**A.** The AC50 was 25.1 µM [falling, partial curve].

**Q.** Which AC50 does the source give for CS(=O)(=O)c1ncc(Cl)c(C(=O)N2CCN(c3cccc(Cl)c3)CC2)n1 here?
**A.** Its AC50 is 5.01 µM [falling, partial curve].

**Q.** For O=C(Nc1nc(-c2ccccc2)cs1)C1CCCN(S(=O)(=O)c2ccccc2)C1 (stereo not given), which AC50 is on record?
**A.** The AC50 was 2.51 µM [falling, full curve].

**Q.** With CCc1ccc(-c2nc3c(c(SCc4ccccc4)n2)Cc2c(CO)cnc(C)c2O3)cc1 as the compound, how does the AC50 read?
**A.** Its AC50 is 0.0398 µM [rising, full curve, poor fit].

**Q.** Which AC50 does the source give for CC(C)Oc1ccc(CNC(=O)c2cc3cccc4c3n2CC(C)S4)cc1 (stereo not given) here?
**A.** The AC50 was 12.6 µM [falling, partial curve].

**Q.** For COc1ccc(Cl)cc1NC(=O)c1ccc(CN2C(=O)CCn3nc(C)cc32)cc1, which AC50 is on record?
**A.** Its AC50 is 25.1 µM [falling, partial curve].

**Q.** Which AC50 does the source give for COc1cc(Cl)c(C)cc1NC(=O)CNC(=O)Cn1ccc2ccccc2c1=O here?
**A.** Its AC50 is 10 µM [falling, partial curve].

**Q.** For COc1ccc(Nc2ncnc3c2cnn3-c2cc(Cl)ccc2C)cc1OC, which AC50 is on record?
**A.** The AC50 was 39.8 µM [falling, single point].

**Q.** Which AC50 does the source give for Cc1cccc(-c2nc(SCCCOc3cc(C)c(Cl)c(C)c3)n3[nH]c(=O)cc3n2)c1 here?
**A.** Its AC50 is 39.8 µM [rising, single point].

**Q.** Which AC50 does the source give for CC(=O)[C@@H]1CC[C@@H]2[C@@H]3C[C@H](C)C4=CC(=O)CC[C@@]4(C)[C@H]3[C@H](O)C[C@]21C here?
**A.** Its AC50 is 3.98 nM [rising, full curve, poor fit] [measured here: IkB-luc green channel].

**Q.** With CNc1nc(SCc2ccccc2)nc(N2CCOCC2)n1 as the compound, how does the AC50 read?
**A.** Its AC50 is 1.58 µM [rising, partial curve].

**Q.** Which AC50 does the source give for CCCc1oc2ccc(NS(=O)(=O)c3ccc(OCC)cc3)cc2c1C(=O)OCC here?
**A.** Its AC50 is 7.94 µM [rising, single point] [measured here: IkB-luc green channel].

**Q.** For Cc1ccc(C(=O)OC2=C(C(=O)c3ccccc3)N(C)S(=O)(=O)c3ccccc32)cc1, which AC50 is on record?
**A.** Its AC50 is 39.8 µM [falling, single point].

**Q.** Which AC50 does the source give for COc1ccccc1C(c1nnnn1CS(=O)(=O)c1ccc(C)cc1)N1CCSCC1 (stereo not given) here?
**A.** Its AC50 is 39.8 µM [falling, single point].

**Q.** For CC(=O)OC1=C(C(C)=O)N(Cc2ccccc2)S(=O)(=O)c2ccccc21, which AC50 is on record?
**A.** Its AC50 is 15.8 µM [falling, partial curve].

**Q.** With Cc1cc(NC(=O)c2ccc(F)cc2)ccc1-c1cc2ccccc2oc1=O as the compound, how does the AC50 read?
**A.** Its AC50 is 20 µM [falling, partial curve].

**Q.** Which AC50 does the source give for CC1CCN(C(=O)CCS(=O)(=O)c2cc3c(cc2Cl)NC(=O)CO3)CC1 here?
**A.** Its AC50 is 0.00631 µM [rising, full curve, poor fit].

**Q.** With COc1ccc(NC(=O)c2ocnc2C)cc1OC as the compound, how does the AC50 read?
**A.** Its AC50 is 3.98 µM [rising, partial curve].

**Q.** For CCCCSc1nnc2[nH]c(=O)cc(C)n12, which AC50 is on record?
**A.** Its AC50 is 5.01 µM [falling, single point].

**Q.** Which AC50 does the source give for CCN(CC)S(=O)(=O)c1ccc(NC(=O)c2nn(C)c3c2CSc2ccccc2-3)cc1 here?
**A.** The AC50 was 20 µM [falling, single point].

**Q.** For CCOc1ccc(Nc2nc(N)c(C(=O)c3ccccc3Cl)s2)cc1, which AC50 is on record?
**A.** Its AC50 is 2 µM [falling, full curve].

**Q.** Which AC50 does the source give for Fc1ccc(Nc2nc(SCc3cccc(F)c3)nc3ccccc23)cc1 here?
**A.** Its AC50 is 12.6 µM [falling, single point].

**Q.** With CCOC(=O)c1ccc(N2C(=O)c3[nH]nc(-c4ccc(C)cc4)c3C2c2ccc(O)cc2)cc1 (stereo not given) as the compound, how does the AC50 read?
**A.** The AC50 was 20 µM [falling, partial curve].

**Q.** Which AC50 does the source give for CC(C)Cn1cc(NC(=O)NCc2ccc(Cl)cc2)c2ccccc2c1=O here?
**A.** Its AC50 is 31.6 µM [falling, single point].
